Data taken from PubChem BioAssay AID504749, deposited by NCATS (2011).

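A panel of P. falciparum strains inside erythrocytes is exposed to compounds for three days, then a DNA-binding dye reports the amount of parasite DNA. Each compound was titrated across a series from about 0.000037 to 29 µM. The number is the fitted AC50, the concentration giving a half-maximal change in signal; a lower value means higher potency, whether the curve shows a decrease or an increase. Calls follow the curve class and fit quality: every row here is inconclusive, covering signal-raising curves and weak, poorly fitted, partial or highest-dose-only inhibition curves.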

Values are in µM. All entries here are filed as inconclusive. These entries are mostly ones the record files as inconclusive; other results of the assay are not listed here. Potencies fitted to partial, single-point or poorly fitting curves are rough. Some entries filed as inconclusive have a full curve.

compound | tested on / at | Potency (µM) | curve
Oc1ccc(O)cc1 | PC26 | 16.94 | inhibitor, partial curve
Oc1ccc(O)cc1 | TAB113 | 19.95 | inhibitor, single point
Oc1ccc(O)cc1 | CP211 | 19.01 | inhibitor, single point
Oc1ccc(O)cc1 | CP260 | 10 | inhibitor, single point
Oc1ccc(O)cc1 | CP256 | 10 | inhibitor, single point
Oc1ccc(O)cc1 | C2A | 8.912 | inhibitor, single point
Oc1ccc(O)cc1 | CP217 | 10 | inhibitor, single point
Oc1ccc(O)cc1 | CP194 | 13.46 | inhibitor, partial curve, poor fit
Oc1ccc(O)cc1 | CP215 | 9.528 | inhibitor, partial curve
Oc1ccc(O)cc1 | CP265 | 11.22 | inhibitor, single point
Oc1ccc(O)cc1 | CP237 | 11.22 | inhibitor, single point
Oc1ccc(O)cc1 | CP247 | 12.59 | inhibitor, single point
Oc1ccc(O)cc1 | CP305 | 10.69 | inhibitor, single point
Oc1ccc(O)cc1 | HB3 | 11.22 | inhibitor, single point
Oc1ccc(O)cc1 | CP192 | 12 | inhibitor, single point
Oc1ccc(O)cc1 | CP315 | 19.01 | inhibitor, single point
Oc1ccc(O)cc1 | CP329 | 9.528 | inhibitor, partial curve
Oc1ccc(O)cc1 | CP286 | 11.22 | inhibitor, partial curve
Oc1ccc(O)cc1 | CP238 | 10 | inhibitor, single point
COC1CC2CCC(C)[C@](O)(O2)C(=O)C(=O)N2CCCCC2C(=O)OC(C(C)CC2CCC(O)C(OC)C2)CC(=O)C(C)/C=C(/C)C(O)C(OC)C(=O)C(C)CC(C)C=CC=C/C=C\1C (stereo partly specified) | CP335 | 3.381 | inhibitor, full curve, poor fit
CCC(=O)O[C@]1(C(=O)CCl)[C@@H](C)CC2C3C[C@H](F)C4=CC(=O)C=CC4(C)[C@@]3(F)C(O)CC21C (stereo partly specified) | CP203 | 13.46 | inhibitor, partial curve, poor fit
CCC(=O)O[C@]1(C(=O)CCl)[C@@H](C)CC2C3C[C@H](F)C4=CC(=O)C=CC4(C)[C@@]3(F)C(O)CC21C (stereo partly specified) | CP192 | 12 | inhibitor, single point
CCC(=O)O[C@]1(C(=O)CCl)[C@@H](C)CC2C3C[C@H](F)C4=CC(=O)C=CC4(C)[C@@]3(F)C(O)CC21C (stereo partly specified) | PC49 | 8.912 | inhibitor, partial curve
CCCCC1=NC2(CCCC2)C(=O)N1Cc1ccc(-c2ccccc2-c2nn[nH]n2)cc1 | 7G8 | 14.13 | inhibitor, partial curve
CCCCC1=NC2(CCCC2)C(=O)N1Cc1ccc(-c2ccccc2-c2nn[nH]n2)cc1 | GB4 | 7.569 | inhibitor, partial curve, poor fit
CCCCC1=NC2(CCCC2)C(=O)N1Cc1ccc(-c2ccccc2-c2nn[nH]n2)cc1 | ICS | 11.22 | inhibitor, single point
CCCCC1=NC2(CCCC2)C(=O)N1Cc1ccc(-c2ccccc2-c2nn[nH]n2)cc1 | DIV14 | 15.1 | inhibitor, partial curve, poor fit
CCCCC1=NC2(CCCC2)C(=O)N1Cc1ccc(-c2ccccc2-c2nn[nH]n2)cc1 | PC26 | 3.793 | inhibitor, full curve
CCCCC1=NC2(CCCC2)C(=O)N1Cc1ccc(-c2ccccc2-c2nn[nH]n2)cc1 | ATS95 | 17.78 | inhibitor, single point
CCCCC1=NC2(CCCC2)C(=O)N1Cc1ccc(-c2ccccc2-c2nn[nH]n2)cc1 | TAB165 | 17.78 | inhibitor, single point
CCCCC1=NC2(CCCC2)C(=O)N1Cc1ccc(-c2ccccc2-c2nn[nH]n2)cc1 | SC27B | 10 | inhibitor, single point
CC[C@@]1(O)C(=O)OCc2c1cc1n(c2=O)Cc2cc3c(CN(C)C)c(O)ccc3nc2-1 | PAD | 7.943 | inhibitor, partial curve
CC[C@@]1(O)C(=O)OCc2c1cc1n(c2=O)Cc2cc3c(CN(C)C)c(O)ccc3nc2-1 | CP217 | 6.31 | inhibitor, partial curve
CC[C@@]1(O)C(=O)OCc2c1cc1n(c2=O)Cc2cc3c(CN(C)C)c(O)ccc3nc2-1 | CP252 | 10 | inhibitor, partial curve
CC[C@@]1(O)C(=O)OCc2c1cc1n(c2=O)Cc2cc3c(CN(C)C)c(O)ccc3nc2-1 | CP185 | 11.22 | inhibitor, partial curve
CC[C@@]1(O)C(=O)OCc2c1cc1n(c2=O)Cc2cc3c(CN(C)C)c(O)ccc3nc2-1 | CP325 | 7.569 | inhibitor, partial curve
CC[C@@]1(O)C(=O)OCc2c1cc1n(c2=O)Cc2cc3c(CN(C)C)c(O)ccc3nc2-1 | CP192 | 15.1 | inhibitor, single point
CC[C@@]1(O)C(=O)OCc2c1cc1n(c2=O)Cc2cc3c(CN(C)C)c(O)ccc3nc2-1 | DIV14 | 16.94 | inhibitor, single point
CC[C@@]1(O)C(=O)OCc2c1cc1n(c2=O)Cc2cc3c(CN(C)C)c(O)ccc3nc2-1 | CP256 | 11.22 | inhibitor, single point
CC[C@@]1(O)C(=O)OCc2c1cc1n(c2=O)Cc2cc3c(CN(C)C)c(O)ccc3nc2-1 | PC26 | 16.94 | inhibitor, single point
CC[C@@]1(O)C(=O)OCc2c1cc1n(c2=O)Cc2cc3c(CN(C)C)c(O)ccc3nc2-1 | HB3 | 11.22 | inhibitor, single point
CC[C@@]1(O)C(=O)OCc2c1cc1n(c2=O)Cc2cc3c(CN(C)C)c(O)ccc3nc2-1 | DIV17 | 12 | inhibitor, partial curve, poor fit
CC[C@@]1(O)C(=O)OCc2c1cc1n(c2=O)Cc2cc3c(CN(C)C)c(O)ccc3nc2-1 | N140 | 14.13 | inhibitor, partial curve, poor fit
CC[C@@]1(O)C(=O)OCc2c1cc1n(c2=O)Cc2cc3c(CN(C)C)c(O)ccc3nc2-1 | DIV30 | 16.94 | inhibitor, single point
CC[C@@]1(O)C(=O)OCc2c1cc1n(c2=O)Cc2cc3c(CN(C)C)c(O)ccc3nc2-1 | CP268 | 7.569 | inhibitor, partial curve
CC[C@@]1(O)C(=O)OCc2c1cc1n(c2=O)Cc2cc3c(CN(C)C)c(O)ccc3nc2-1 | CP269 | 6.746 | inhibitor, partial curve
CC[C@@]1(O)C(=O)OCc2c1cc1n(c2=O)Cc2cc3c(CN(C)C)c(O)ccc3nc2-1 | SC27B | 3.981 | inhibitor, full curve
CC[C@@]1(O)C(=O)OCc2c1cc1n(c2=O)Cc2cc3c(CN(C)C)c(O)ccc3nc2-1 | CP201 | 6.012 | inhibitor, partial curve
CC[C@@]1(O)C(=O)OCc2c1cc1n(c2=O)Cc2cc3c(CN(C)C)c(O)ccc3nc2-1 | CP238 | 12.59 | inhibitor, partial curve
CC[C@@]1(O)C(=O)OCc2c1cc1n(c2=O)Cc2cc3c(CN(C)C)c(O)ccc3nc2-1 | CP247 | 5.623 | inhibitor, partial curve
CC[C@@]1(O)C(=O)OCc2c1cc1n(c2=O)Cc2cc3c(CN(C)C)c(O)ccc3nc2-1 | CP315 | 15.1 | inhibitor, single point
CC[C@@]1(O)C(=O)OCc2c1cc1n(c2=O)Cc2cc3c(CN(C)C)c(O)ccc3nc2-1 | JCK | 10 | inhibitor, single point
CC[C@@]1(O)C(=O)OCc2c1cc1n(c2=O)Cc2cc3c(CN(C)C)c(O)ccc3nc2-1 | 7G8 | 11.22 | inhibitor, single point

The last 4 entries again:

{"compound": "CC[C@@]1(O)C(=O)OCc2c1cc1n(c2=O)Cc2cc3c(CN(C)C)c(O)ccc3nc2-1", "tested on / at": "CP247", "Potency (µM)": "5.623", "curve": "inhibitor, partial curve"}
{"compound": "CC[C@@]1(O)C(=O)OCc2c1cc1n(c2=O)Cc2cc3c(CN(C)C)c(O)ccc3nc2-1", "tested on / at": "CP315", "Potency (µM)": "15.1", "curve": "inhibitor, single point"}
{"compound": "CC[C@@]1(O)C(=O)OCc2c1cc1n(c2=O)Cc2cc3c(CN(C)C)c(O)ccc3nc2-1", "tested on / at": "JCK", "Potency (µM)": "10", "curve": "inhibitor, single point"}
{"compound": "CC[C@@]1(O)C(=O)OCc2c1cc1n(c2=O)Cc2cc3c(CN(C)C)c(O)ccc3nc2-1", "tested on / at": "7G8", "Potency (µM)": "11.22", "curve": "inhibitor, single point"}